Primary screen of a compound library

Amino acid sequences for entries named in this document (tags omitted).
UniProt E9BF75, entry or part of it: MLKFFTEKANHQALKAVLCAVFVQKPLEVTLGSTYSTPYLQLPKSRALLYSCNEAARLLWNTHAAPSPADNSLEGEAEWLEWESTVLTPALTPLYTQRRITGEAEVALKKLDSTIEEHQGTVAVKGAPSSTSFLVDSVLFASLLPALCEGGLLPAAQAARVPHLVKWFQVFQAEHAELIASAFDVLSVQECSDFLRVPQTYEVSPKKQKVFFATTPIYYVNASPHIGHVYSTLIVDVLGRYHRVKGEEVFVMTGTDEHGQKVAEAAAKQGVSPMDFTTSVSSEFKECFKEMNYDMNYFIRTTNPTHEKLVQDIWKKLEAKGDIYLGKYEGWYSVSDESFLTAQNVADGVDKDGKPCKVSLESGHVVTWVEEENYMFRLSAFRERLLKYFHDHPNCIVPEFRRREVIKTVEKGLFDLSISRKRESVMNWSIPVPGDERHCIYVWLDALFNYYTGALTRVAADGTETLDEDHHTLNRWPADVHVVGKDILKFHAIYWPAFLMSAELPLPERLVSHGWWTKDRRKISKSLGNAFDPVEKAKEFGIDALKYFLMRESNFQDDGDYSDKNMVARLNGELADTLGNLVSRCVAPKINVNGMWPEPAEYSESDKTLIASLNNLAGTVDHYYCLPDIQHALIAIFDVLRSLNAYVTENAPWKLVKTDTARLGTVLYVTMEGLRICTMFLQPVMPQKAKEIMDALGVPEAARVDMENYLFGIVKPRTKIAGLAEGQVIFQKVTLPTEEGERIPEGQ

Measurements from “University of Dundee, Small-Polar-MMV Screening Library” (2021), ChEMBL document CHEMBL3988442.

All values are in %. The controls that fix the scale are not given in the record; negative values are as filed. Compounds were drawn at random from those tested, without regard to their results.

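Methionyl-tRNA synthetase (putative), Leishmania donovani (UniProt E9BF75). Primary screen of methionyl-tRNA synthetase; the read-out is not stated. The test concentration is not given. The values are filed as inhibition. Size under these conditions: about 68,000 compounds, about 24 of them at 50% or above in at least one test.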

SMILES,Inhibition
CN1CCCC(NC(=O)c2ccc(C(=O)c3cc[nH]c3)cc2)C1 (stereo not shown),10.43
O=C1CCC(CCC(=O)N2CCCC2c2nccs2)=NN1 (stereo not shown),2.03
CC(C)(NC(=O)c1cnc(C(C)(C)C)s1)C(N)=O,6.383
O=C(C1CC1)N1C[C@H]2CCCN(S(=O)(=O)c3ccc4c(c3)CCC4)[C@H]2C1,7.477
CC(C)Oc1ccc(C(=O)NCc2ccnc(N3CCCC3)c2)cn1,8.424
Cc1nc(-c2nc(C(=O)N3CCOCC3)c3ccccn23)cn1C(C)C,15.56
CC(Sc1nnc(C2CC2)n1CC(N)=O)c1ccc(Cl)cc1 (stereo not shown),4.011
O=C1NCC[C@]12CN(CC1CCOCC1)C[C@H]2c1ccccc1,3.297
CCc1noc(C2CCCCN2C(=O)c2nnc3ccccc3n2)n1 (stereo not shown),12.86
COc1ccc(CCC2CCCN(CC(=O)O)C2)cc1 (stereo not shown),14.36
Cc1ncccc1OC1(C(=O)NCCCN2CCOCC2)CCNCC1,12.68
CC(C)c1nn(C)c(N(C)C)c1CNCc1ccccc1CO,16.32
COc1cccc(NC(=O)CNc2ccc(C(=O)N(C)C)c(Cl)c2)c1,9.589
COc1ccc(C(=O)NC2CC2)c(OC2CCN(CC3CC3)CC2)c1,2.235
CC(C#N)CNC(=O)Nc1ccc(-c2cc[nH]n2)cc1 (stereo not shown),0.5013
O=C(Nc1cc(C(F)(F)F)c[nH]c1=O)N1CCOCC1,21.02
CCN(Cc1cc(F)c(OC)c(Cl)c1)Cc1nc(COC)no1,2.941
COC(=O)N1CCC2(CC1)N=C(CCC(C)C)NC2=O,5.783
COC(=O)Cn1ccc(=O)c2ccc(OC)cc21,6.63
CC(CO)NC(=O)Nc1ccc(S(C)(=O)=O)nc1 (stereo not shown),16.84
O=C(c1cc(C2CC2)nc2onc(-c3ccccc3)c12)N1CC[C@H](O)C1,18.12
O=C(C1CCOCC1)N1CCc2ncnc(-c3ccc(F)cc3)c2CC1,12.13
O=C(CCc1ccsc1)N1CCC(C(=O)O)(c2ccccc2)CC1,10.14
Cc1nc(C)c(C(=O)OCCNc2ncccc2C#N)s1,7.317
CC(C)n1cnnc1CN(C)C(=O)Cn1ccc2ccccc2c1=O,6.842
COc1cc2nc(C)sc2cc1NC(=O)CN(C)C(C)C,14.18
CC(C)(C)Nc1c(C2CCN(C(=O)C(C)(C)C)CC2)nc2ccccn12,9.062
CC(=O)N1CCC(NC(=O)CN2CCCc3c(F)ccc(C)c32)CC1,17.14
Cc1ccc(C(C(=O)N2CC(c3ccccn3)C2)N(C)C)cc1 (stereo not shown),1.818
COC(=O)c1cccn1C1CCN(C(=O)c2cc(C)ccc2O)CC1,10.93
O=C(Cc1cccnc1)N1CCCC2(CCN(C3CCOCC3)C2)C1 (stereo not shown),1.075
Cc1ccccc1CNC(=O)c1ccccc1-n1cc(CN)cn1,14.89
CCC(O)CN1CCN(C(=O)Cc2nc(-c3ccco3)oc2C)CC1 (stereo not shown),4.467
Cc1ccc(C2CCCCCN2CCNS(C)(=O)=O)o1 (stereo not shown),10.66
Fc1ccccc1OCCN1CCCCC1Cn1cncn1 (stereo not shown),14.42
CCOc1ccc2cc(C(=O)N3CCn4c(CC)nnc4C3)[nH]c2c1,17.95
Cc1cccnc1CN1CCCCC1c1ccn2ccnc2n1 (stereo not shown),9.647
CCOc1ccc(N2CCC(C(O)c3ccccc3)CC2)nn1 (stereo not shown),5.986
COCCN(C(=O)c1nc(-c2ccco2)sc1C)C1CC1,10.92
CCOC(C)C(=O)N1CCCN(Cc2csc(CC)n2)CC1 (stereo not shown),9.639
CC(C)NC(=O)CCC(=O)N1CCC(c2noc3cc(F)ccc23)CC1,4.065
CC(C)c1ccc(C2(C(=O)NCCS(N)(=O)=O)CCC2)cc1,27.33
Cc1cc(C(C)NCCN2CCC(N(C)C)CC2)c(C)s1 (stereo not shown),4.62
CN1CCN(Cc2cnn(-c3ccc(F)cc3)c2)[C@H]2CS(=O)(=O)C[C@H]21,5.852
C[C@@H]1C(=O)NC[C@H]2CN(Cc3ccsc3)C[C@H]21,13.8
CS(=O)(=O)NCC1CCCCN1C(=O)c1ccsc1 (stereo not shown),-1.489
O=C(CN1CCCC1Cn1cncn1)NCCc1c(F)cccc1F (stereo not shown),7.874
CC(C)c1ccc(CN2CCC(CNS(=O)(=O)C3CC3)C2)cc1 (stereo not shown),5.333
Cc1nc(NC(=O)CCOCC(F)(F)F)ccc1Br,3.064
COc1ccc(CC(=O)N2CCCC2Cn2cc(C)cn2)cc1OC (stereo not shown),14.36
CCc1c(C)nc2ccccc2c1N1CCC(C(=O)NC)CC1,18.45
CCOc1cc(C)nc(N2CCN(C(=O)CC)CC2)n1,6.032
CNC(=O)[C@@]12CCC3(CCN(C(=O)COC)CC3)[C@@H]1CN(S(C)(=O)=O)C2,10.66
Cc1nn(C)c(C)c1OCC(=O)N1CCC(O)(C(F)(F)F)CC1,10.99
CCCSc1nc(N)c(NC(=O)c2ccc(OC)c(OC)c2)c(=O)[nH]1,6.475
CC(C)Oc1cccc(CNC(=O)N2CCC(N3CC=CC3)C2)c1 (stereo not shown),4.178

Some entries from above, unchanged:

Result for Cc1nc(C)c(C(=O)OCCNc2ncccc2C#N)s1 was 7.317%.
Result for CC(C)c1ccc(CN2CCC(CNS(=O)(=O)C3CC3)C2)cc1 (stereo not shown) was 5.333%.
Result for COc1cc2nc(C)sc2cc1NC(=O)CN(C)C(C)C was 14.18%.
Result for COC(=O)N1CCC2(CC1)N=C(CCC(C)C)NC2=O was 5.783%.
Result for O=C(c1cc(C2CC2)nc2onc(-c3ccccc3)c12)N1CC[C@H](O)C1 was 18.12%.